Measured values reported in article PMC6339880.

The chains behind the UniProt entries cited, without tags or fusion partners. Residues count along the entry.
UniProt P04951: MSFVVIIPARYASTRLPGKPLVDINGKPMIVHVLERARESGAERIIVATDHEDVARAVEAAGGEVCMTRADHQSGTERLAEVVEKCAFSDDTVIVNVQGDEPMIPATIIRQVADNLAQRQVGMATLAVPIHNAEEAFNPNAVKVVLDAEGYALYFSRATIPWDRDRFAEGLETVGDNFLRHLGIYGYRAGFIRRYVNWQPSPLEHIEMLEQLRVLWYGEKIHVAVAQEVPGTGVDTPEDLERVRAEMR
UniProt P0AAI5: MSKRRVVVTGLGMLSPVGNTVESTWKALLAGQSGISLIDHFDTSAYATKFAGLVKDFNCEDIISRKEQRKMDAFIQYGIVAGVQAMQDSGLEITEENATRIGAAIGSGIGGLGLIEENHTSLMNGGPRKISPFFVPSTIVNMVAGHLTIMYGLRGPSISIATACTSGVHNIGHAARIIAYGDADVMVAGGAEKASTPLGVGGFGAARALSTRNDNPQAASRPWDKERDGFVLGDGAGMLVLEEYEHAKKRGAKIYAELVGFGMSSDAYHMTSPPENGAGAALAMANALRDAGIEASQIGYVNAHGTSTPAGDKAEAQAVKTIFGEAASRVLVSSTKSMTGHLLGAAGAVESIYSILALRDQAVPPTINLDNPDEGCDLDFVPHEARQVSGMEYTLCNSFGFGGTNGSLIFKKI
UniProt P02943, residues 26-446: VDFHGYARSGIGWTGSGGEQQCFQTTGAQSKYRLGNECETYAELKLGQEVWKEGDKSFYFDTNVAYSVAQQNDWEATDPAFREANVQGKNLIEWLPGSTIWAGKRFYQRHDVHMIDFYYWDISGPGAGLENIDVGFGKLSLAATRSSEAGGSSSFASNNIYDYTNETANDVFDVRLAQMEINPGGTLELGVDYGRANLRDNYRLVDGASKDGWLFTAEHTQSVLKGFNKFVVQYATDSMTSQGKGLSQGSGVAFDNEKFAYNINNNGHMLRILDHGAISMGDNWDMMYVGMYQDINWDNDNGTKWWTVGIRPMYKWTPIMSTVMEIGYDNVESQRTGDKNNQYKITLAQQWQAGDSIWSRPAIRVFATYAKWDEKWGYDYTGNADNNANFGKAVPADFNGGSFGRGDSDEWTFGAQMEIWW
UniProt P0A715: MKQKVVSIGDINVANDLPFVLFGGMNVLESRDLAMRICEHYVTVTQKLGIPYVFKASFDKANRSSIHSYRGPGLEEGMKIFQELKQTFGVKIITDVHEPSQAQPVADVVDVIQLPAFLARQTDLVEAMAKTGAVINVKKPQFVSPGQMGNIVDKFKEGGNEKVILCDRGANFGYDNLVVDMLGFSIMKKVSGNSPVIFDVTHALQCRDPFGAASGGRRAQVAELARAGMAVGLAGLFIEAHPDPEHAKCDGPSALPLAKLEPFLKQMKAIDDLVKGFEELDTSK
UniProt P0AG24: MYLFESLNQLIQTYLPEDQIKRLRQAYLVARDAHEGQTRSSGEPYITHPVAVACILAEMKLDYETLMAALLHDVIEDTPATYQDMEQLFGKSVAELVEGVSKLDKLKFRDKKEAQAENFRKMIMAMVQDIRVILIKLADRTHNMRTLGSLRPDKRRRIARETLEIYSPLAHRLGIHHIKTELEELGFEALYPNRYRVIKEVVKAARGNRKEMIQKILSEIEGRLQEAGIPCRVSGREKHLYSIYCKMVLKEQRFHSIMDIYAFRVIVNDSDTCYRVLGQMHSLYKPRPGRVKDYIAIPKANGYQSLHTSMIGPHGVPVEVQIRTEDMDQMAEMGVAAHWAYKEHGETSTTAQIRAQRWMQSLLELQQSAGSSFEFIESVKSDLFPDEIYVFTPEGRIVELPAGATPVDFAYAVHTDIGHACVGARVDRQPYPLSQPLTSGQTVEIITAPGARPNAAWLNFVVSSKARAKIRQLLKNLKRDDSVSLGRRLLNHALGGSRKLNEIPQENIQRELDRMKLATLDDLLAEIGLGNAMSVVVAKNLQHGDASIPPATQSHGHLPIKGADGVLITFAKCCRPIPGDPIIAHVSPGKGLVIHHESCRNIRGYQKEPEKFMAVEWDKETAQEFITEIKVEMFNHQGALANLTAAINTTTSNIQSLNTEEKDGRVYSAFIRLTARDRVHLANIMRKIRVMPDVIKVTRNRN
UniProt P0AG20: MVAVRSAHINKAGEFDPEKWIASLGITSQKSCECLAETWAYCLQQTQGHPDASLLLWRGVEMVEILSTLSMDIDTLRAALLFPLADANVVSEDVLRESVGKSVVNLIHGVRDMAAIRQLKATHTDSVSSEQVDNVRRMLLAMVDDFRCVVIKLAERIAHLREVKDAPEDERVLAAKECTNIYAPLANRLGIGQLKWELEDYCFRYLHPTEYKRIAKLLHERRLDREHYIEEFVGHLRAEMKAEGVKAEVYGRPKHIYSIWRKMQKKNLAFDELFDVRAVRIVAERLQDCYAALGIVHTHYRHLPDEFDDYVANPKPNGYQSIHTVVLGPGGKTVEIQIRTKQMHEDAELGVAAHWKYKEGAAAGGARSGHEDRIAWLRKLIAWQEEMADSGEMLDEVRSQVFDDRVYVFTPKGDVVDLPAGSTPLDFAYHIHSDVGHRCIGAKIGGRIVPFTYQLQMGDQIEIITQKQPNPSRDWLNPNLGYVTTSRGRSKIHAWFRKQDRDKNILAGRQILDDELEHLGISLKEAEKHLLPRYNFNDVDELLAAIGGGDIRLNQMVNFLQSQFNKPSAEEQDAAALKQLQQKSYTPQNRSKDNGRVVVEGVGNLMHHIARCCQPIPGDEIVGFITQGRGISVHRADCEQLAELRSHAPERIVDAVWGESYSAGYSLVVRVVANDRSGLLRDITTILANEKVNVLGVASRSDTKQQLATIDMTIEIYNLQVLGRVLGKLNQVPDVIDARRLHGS
UniProt P76472: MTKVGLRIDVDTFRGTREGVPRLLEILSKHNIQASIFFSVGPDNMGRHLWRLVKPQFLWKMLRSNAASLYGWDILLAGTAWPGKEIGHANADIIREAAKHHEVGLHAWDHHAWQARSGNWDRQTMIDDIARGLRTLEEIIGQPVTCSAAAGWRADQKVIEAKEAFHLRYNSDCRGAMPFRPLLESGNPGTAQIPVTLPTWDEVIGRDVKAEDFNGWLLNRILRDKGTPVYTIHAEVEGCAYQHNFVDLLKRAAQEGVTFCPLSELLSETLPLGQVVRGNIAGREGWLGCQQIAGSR
UniProt P0AAI3: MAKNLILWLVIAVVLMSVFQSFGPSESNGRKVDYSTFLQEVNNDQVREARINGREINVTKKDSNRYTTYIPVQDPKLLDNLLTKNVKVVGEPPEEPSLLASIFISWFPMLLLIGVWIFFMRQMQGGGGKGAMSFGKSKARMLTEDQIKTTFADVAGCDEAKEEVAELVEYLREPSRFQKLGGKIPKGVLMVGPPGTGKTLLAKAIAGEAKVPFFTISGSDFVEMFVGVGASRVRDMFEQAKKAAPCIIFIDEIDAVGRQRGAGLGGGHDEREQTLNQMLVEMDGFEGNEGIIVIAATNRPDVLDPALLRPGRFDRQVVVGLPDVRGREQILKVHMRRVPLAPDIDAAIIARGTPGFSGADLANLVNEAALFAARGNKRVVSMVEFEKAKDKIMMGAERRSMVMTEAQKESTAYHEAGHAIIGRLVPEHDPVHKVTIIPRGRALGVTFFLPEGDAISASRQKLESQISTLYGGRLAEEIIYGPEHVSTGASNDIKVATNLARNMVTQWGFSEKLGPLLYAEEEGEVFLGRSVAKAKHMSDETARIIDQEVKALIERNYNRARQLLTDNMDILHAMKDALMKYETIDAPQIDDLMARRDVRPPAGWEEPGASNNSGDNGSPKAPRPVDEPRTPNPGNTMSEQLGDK
UniProt P0A8V6: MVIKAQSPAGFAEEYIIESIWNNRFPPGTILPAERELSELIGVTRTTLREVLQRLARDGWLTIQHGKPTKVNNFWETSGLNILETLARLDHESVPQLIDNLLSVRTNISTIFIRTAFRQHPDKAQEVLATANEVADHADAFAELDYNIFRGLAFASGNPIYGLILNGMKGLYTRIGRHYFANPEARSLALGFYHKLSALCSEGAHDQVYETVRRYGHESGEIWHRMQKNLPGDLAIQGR
UniProt P0A6F5: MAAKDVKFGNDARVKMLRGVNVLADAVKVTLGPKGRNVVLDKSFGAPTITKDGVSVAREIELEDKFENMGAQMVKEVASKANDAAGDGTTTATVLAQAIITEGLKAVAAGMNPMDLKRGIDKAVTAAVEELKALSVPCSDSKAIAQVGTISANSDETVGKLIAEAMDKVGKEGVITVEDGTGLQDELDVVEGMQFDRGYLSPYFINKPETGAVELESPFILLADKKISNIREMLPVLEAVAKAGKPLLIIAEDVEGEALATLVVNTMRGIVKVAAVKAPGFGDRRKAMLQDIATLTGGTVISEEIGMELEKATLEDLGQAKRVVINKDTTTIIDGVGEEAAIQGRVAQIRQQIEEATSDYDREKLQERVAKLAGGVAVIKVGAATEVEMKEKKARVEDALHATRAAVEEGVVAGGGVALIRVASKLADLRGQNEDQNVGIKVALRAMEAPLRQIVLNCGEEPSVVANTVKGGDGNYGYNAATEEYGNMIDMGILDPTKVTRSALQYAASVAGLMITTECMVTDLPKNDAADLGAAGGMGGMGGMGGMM
UniProt P0A6B7: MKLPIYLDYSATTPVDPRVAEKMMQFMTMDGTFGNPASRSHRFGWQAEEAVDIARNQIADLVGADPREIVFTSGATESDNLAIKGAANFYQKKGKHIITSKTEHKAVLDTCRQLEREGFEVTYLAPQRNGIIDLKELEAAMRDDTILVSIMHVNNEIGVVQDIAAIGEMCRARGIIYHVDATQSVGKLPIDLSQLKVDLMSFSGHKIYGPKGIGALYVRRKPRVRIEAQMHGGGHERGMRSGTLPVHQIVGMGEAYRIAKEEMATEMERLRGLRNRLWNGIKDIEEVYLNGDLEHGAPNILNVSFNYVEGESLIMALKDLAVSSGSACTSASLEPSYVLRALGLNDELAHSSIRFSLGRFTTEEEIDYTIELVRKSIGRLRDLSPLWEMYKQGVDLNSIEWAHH
UniProt P0A850: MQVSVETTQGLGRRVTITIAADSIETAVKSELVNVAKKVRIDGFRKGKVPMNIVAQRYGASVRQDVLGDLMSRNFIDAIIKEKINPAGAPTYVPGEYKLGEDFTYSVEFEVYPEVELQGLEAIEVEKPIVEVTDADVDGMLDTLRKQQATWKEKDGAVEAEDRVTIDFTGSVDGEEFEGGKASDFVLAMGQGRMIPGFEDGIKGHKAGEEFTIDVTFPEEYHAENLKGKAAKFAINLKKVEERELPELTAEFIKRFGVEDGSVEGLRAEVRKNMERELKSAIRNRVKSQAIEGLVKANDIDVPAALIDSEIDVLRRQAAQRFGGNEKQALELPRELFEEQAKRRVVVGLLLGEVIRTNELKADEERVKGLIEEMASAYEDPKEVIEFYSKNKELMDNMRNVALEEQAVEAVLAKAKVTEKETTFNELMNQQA
UniProt P63224: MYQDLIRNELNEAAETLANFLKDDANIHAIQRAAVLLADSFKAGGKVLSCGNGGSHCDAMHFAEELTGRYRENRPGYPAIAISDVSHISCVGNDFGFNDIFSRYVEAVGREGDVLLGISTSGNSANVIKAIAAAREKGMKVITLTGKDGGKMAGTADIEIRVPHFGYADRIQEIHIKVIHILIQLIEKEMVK

target: T1, Strep-LpxC (E. coli) (UniProt P0A725); experiment: affinity purification with mass spectrometry; Strep-LpxC overproduced in E. coli BL21 Δarg/Δlys grown at 30°C (slow), 37°C (medium) or 40°C (fast growth); Strep-tactin affinity purification from the lysate; co-purified proteins identified by LC-MS/MS with a super-SILAC standard; enriched >2-fold over the Strep-tag empty-vector control, p<0.05, or 'LpxC only'
T1 sequence: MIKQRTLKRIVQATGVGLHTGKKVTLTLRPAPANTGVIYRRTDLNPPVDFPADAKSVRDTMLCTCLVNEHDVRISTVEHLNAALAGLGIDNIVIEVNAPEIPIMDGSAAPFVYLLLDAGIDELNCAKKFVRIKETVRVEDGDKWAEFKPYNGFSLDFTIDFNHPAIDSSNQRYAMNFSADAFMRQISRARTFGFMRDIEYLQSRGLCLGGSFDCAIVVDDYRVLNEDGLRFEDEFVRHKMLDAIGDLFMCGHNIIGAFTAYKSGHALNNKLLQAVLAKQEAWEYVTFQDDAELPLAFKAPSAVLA

Substance | binding
KdsB (from UniProt P04951 1-248) (enzyme) | binds
FabF (from UniProt P0AAI5 1-413) (enzyme) | binds
LamB (from UniProt P02943 26-446) | binds
KdsA (from UniProt P0A715 1-284) (enzyme) | binds
SpoT (from UniProt P0AG24 1-702) (enzyme) | binds
RelA (from UniProt P0AG20 1-744) (enzyme) | binds
WaaH (E. coli (endogenous in BL21 Δarg/Δlys)) (enzyme) | binds

The next lines start with the values.

binding | Substance
binds | ArnD (from UniProt P76472 1-296) (enzyme)
binds | FtsH (from UniProt P0AAI3 1-644) (enzyme)
binds | FadR (from UniProt P0A8V6 1-239)
binds | GroEL (from UniProt P0A6F5 1-548)

target: His6-MBP-FtsH (E. coli) (UniProt P0AAI3); experiment: affinity purification with mass spectrometry; His6-MBP-FtsH overproduced in E. coli BL21 Δarg/Δlys grown at 30°C (slow), 37°C (medium) or 40°C (fast growth); Ni-NTA affinity purification from the lysate; co-purified proteins identified by LC-MS/MS with a super-SILAC standard; enriched >2-fold over the His6-MBP empty-vector control, p<0.05, or 'FtsH only'

binding | Substance
binds | LamB (from UniProt P02943 26-446)
binds | KdsA (from UniProt P0A715 1-284) (enzyme)
binds | IscS (from UniProt P0A6B7 1-404) (enzyme)
binds | Tig (from UniProt P0A850 1-432)
binds | GmhA (from UniProt P63224 1-192) (enzyme)

No constants are given. Whether binding was seen depends on the method and setting. In cells and extracts the contact can be indirect. These calls come from enrichment with a bait or labelling near it, and not all partners need be listed.
